Reference: PubChem BioAssay AID2685 (National Center for Advancing Translational Sciences (NCATS), 2010)
The campaign covered roughly 320,000 compounds. About 2,100 (0.66%) were called active. The inconclusive results got no clear call from the source; some entries with a clear call stand among them for comparison. Calls follow the shape of the dose curve; as a rule, active = well fitted inhibition curve with a large enough effect in the signal ratio, with a control signal flat (not every such curve was filed as active); inconclusive = small, poorly fitted or top-dose-only effect, or effect the other way, or a change in a side signal; inactive = flat fitted curve, though single readings scatter; the % refers to the signal ratio. Where the call is inconclusive, the potency comes from a doubtful curve fit.

Assay: qHTS Assay for Lipid Storage Modulators in Drosophila S3 Cells
Conditions: BODIPY lipid droplet fluorescence, 18-24 h, cells fed with added oleic acid; lipid storage change, negative = inhibition: at 46.1 µM (top of the series) unless noted
Method in brief: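 Drosophila S3 cells got compounds at several concentrations plus oleic acid (400 uM solution). Laser-scanning cytometry with 488 nm excitation read lipid droplets at 500-530 nm and cells at 575-640 nm. Percent activity was relative to 20 uM Triacsin C.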
% is scaled to controls: 0 for no effect and ±100 for the full control effect; potency is read from the fitted curve at half-maximal effect.

| SMILES | Potency | lipid storage change, negative = inhibition |
| --- | --- | --- |
| O=C(C1=C(O)C(=O)N(CC2CCCO2)C1c1ccccc1)c1ccco1 (configuration not stated) | inconclusive: 3.26 µM [falling, partial curve, poor fit] |  |
| Cc1cccc(/C(N)=N/OC(=O)c2cccc3ccccc23)c1 |  | inconclusive: 0.817% |
| CCCCNS(=O)(=O)c1ccc(OCC(=O)OC)cc1 |  | inconclusive: 3.26% |
| Cc1ccc(C)c(S(=O)(=O)NC(CC(C)C)C(=O)O)c1 (configuration not stated) | inconclusive: 20.6 µM [activator, partial curve] |  |
| Cc1ccc(C(OC(=O)c2ccco2)C(=O)NCc2cccs2)cc1 (configuration not stated) |  | inconclusive: -3.17% |
| O=C(Nc1nccs1)c1nc(-c2ccccc2)n(-c2ccccc2)n1 |  | inconclusive: -1.91% |
| COc1ccc(OC)c(NC(=S)N(CCc2c(C)[nH]c3ccc(C)cc23)Cc2cccs2)c1 |  | inconclusive: 34.5% |
| O=C(Nc1ccc(C(=O)O)cc1)Nc1cccc2ccccc12 | inconclusive: 0.231 µM [activator, full curve] |  |
| C(=C\c1ccccn1)/c1ccncc1 |  | inconclusive: 6.33% |
| O=C1Nc2cc(Cl)c(Cl)cc2N(O)N1c1ccc(Cl)c(Cl)c1 |  | inconclusive: 20.3% |
| CCCC(C)C(=O)Nc1ccc(F)c(Cl)c1 (configuration not stated) | inconclusive: 6.51 µM [falling, single point] |  |
| COc1cccc(Nc2nc(-c3sc(C)nc3C)cs2)c1 |  | inconclusive: -65.4% |
| Cc1ccc(C23CC4CC(CC(C(=O)OCC(=O)N(C)C)(C4)C2)C3)cc1 |  | inactive |
| CCNc1ccc(S(=O)(=O)N(C)C)cc1NCC(=O)Nc1ccccc1Cl |  | inconclusive: 24.3% |
| O=C(Nc1ccccc1[N+](=O)[O-])C1(c2ccccc2)CCOCC1 |  | inactive |
| CCSc1ccccc1C(=O)NCc1ccc2c(c1)OCO2 |  | inconclusive: -48.8% |
| CCOC(=O)N/N=C/C(Cl)=C/c1ccccc1 |  | inconclusive: 23.6% |
| COc1cc(NC(=O)CSc2nc(C)c(C)c(C)n2)cc(OC)c1 |  | inconclusive: 10.2% |
| Nc1nc(NC(=O)c2ccco2)nn1-c1ccccc1 | inconclusive: 1.3 µM [falling, full curve] |  |
| Cc1nc(-c2ccccc2)sc1-c1nc(-c2cccnc2)ncc1S(=O)(=O)c1ccccc1 |  | inconclusive: 36.9% |
| CC(C)[C@H](NC(=O)N1c2ccccc2NC(=O)[C@@H]1C(C)C)C(=O)N[C@@H](C(=O)O)c1ccccc1 |  | inconclusive: 2.69% |
| O=C(COC(=O)c1ccc(NC(=O)C2CC=CCC2C(=O)O)cc1)c1ccccc1 (configuration not stated) |  | inconclusive: 1.58% |
| COc1ccc(-n2nc([N+](=O)[O-])c(=NCCC3=CCCCC3)n2O)cc1 | inconclusive: 0.082 µM [activator, full curve, poor fit] |  |
| CN(C)NC(=S)NC(=O)C12CC3CC(CC(C3)C1)C2 |  | inconclusive: 21% |
| Cc1oc(-c2ccccc2F)nc1CS(=O)(=O)CC(=O)NC1CCCC1 | inconclusive: 23.1 µM [activator, single point] |  |
| COC(=O)c1sccc1NC(=O)c1ccc(C#N)cc1 | inconclusive: 0.58 µM [falling, full curve] |  |

| SMILES | Potency | lipid storage change, negative = inhibition |
| --- | --- | --- |
| COc1ccc(S(=O)(=O)Nc2ccccc2C(=O)N2CCCC2)cc1C |  | inconclusive: -151% |
| Cc1cc(NS(=O)(=O)Cc2ccccc2)cc(C)c1OCC(=O)N1CCOCC1 | inconclusive: 25.9 µM [falling, partial curve, poor fit] |  |
| Cc1ccc2nc(C3CCCCC3)[nH]c2c1 |  | inconclusive: -11.5% |
| CCN(CC)c1ccc(NC(=O)COc2ccccc2C#N)cc1S(=O)(=O)Nc1ccccc1OC |  | inconclusive: 6.79% |
| Cc1ccc(N2C(=O)C(O)(C(F)(F)F)C3=C2CC(C)(C)CC3=O)cc1 (configuration not stated) | inconclusive: 29.1 µM [falling, single point] |  |
| CC(C)Cn1c(-c2ccco2)n[nH]c1=S |  | inconclusive: -36.6% |
| Cc1nn(C)c(Cl)c1S(=O)(=O)N[C@@H](c1ccccc1)[C@]1(C)C[C@H]1[C@@H](C)C(=O)Nc1ccc2ccccc2c1 |  | inconclusive: -2.67% |
| CCCC(=O)NC(c1ccccc1OC)c1ccc2cccnc2c1O (configuration not stated) |  | inconclusive: -54% |
| Cc1cc(NC(=O)CN2C(=O)NC(C)(CCc3ccccc3)C2=O)no1 (configuration not stated) | inconclusive: 13 µM [falling, partial curve] |  |
| C=CCn1cnnc1SCC(=O)Nc1cccnc1Cl |  | inconclusive |
| Cc1cccc2[nH]c3c(=O)n(CCN4CCNCC4)cnc3c12 | inconclusive: 0.82 µM [activator, full curve] |  |
| Cc1cccc(N2CCN(C(=O)CCC(=O)N3CC(C)Oc4ccccc43)CC2)c1C (configuration not stated) |  | inconclusive: -22.5% |
| S=C(Nc1ccc(CN2CCCCC2)cc1)Nc1cccc(Cl)c1Cl | inconclusive: 6.51 µM [falling, single point] |  |
| COc1ccc(NC(=O)NCc2cccnc2)c(OC)c1 | inconclusive: 29.1 µM [activator, single point] |  |
| CC1Nc2ccc(C(=O)NC3CCCCC3)cc2NC1=O (configuration not stated) | active: 23.1 µM |  |
| COc1ccccc1C(=O)NCC(=O)N/N=C/c1ccc2c(c1)OCO2 |  | inconclusive: 151% |
| Cc1ccccc1C(=O)NC(C)c1ccc2c(c1)CCCC2 (configuration not stated) |  | inconclusive: -26.7% |
| O=C(N/N=C/C(Cl)=C/c1ccc([N+](=O)[O-])cc1)C(=O)Nc1cccc(C(=O)O)c1 |  | inconclusive: -24.4% |
| O=C(CSc1nnc(CN2CCCCC2)n1-c1ccccc1)c1ccc2c(c1)OCO2 |  | inconclusive: 18.3% |
| O=C(COC(=O)C1CC1)NCCc1ccc(Cl)cc1 |  | inconclusive |
| Cc1ccc(Cl)cc1NC(=O)Cn1cc(C(F)(F)F)cc(Cl)c1=O |  | inconclusive: -35.6% |
| Cc1ccccc1OCC(=O)NCCCNC(=O)c1ccccn1 |  | inconclusive: 70.7% |
| CCc1nnc(NC(=O)CSc2nnc(COc3ccccc3)n2-c2ccc(C)cc2)s1 | inconclusive: 5.8 µM [falling, single point] |  |
| CC1(C)CC2CC(C)(CN2C(=O)COC(=O)c2cc(Cl)cc(Cl)c2N)C1 (configuration not stated) | inconclusive: 29.1 µM [activator, single point] |  |
| Cc1ccc(-c2nc(CSc3nc4ccccc4c(=O)n3CCO)cs2)cc1 | inconclusive: 18.4 µM [activator, partial curve] |  |
| CCC(=O)c1ccccc1OCCCN1CCC(Cc2ccccc2)CC1 | inconclusive: 29.1 µM [falling, single point] |  |

Rewritten with bars between the fields: part of the list above
SMILES | Potency | lipid storage change, negative = inhibition
CCCCNS(=O)(=O)c1ccc(OCC(=O)OC)cc1 |  | inconclusive: 3.26%
C(=C\c1ccccn1)/c1ccncc1 |  | inconclusive: 6.33%
CCOC(=O)N/N=C/C(Cl)=C/c1ccccc1 |  | inconclusive: 23.6%
COc1ccc(S(=O)(=O)Nc2ccccc2C(=O)N2CCCC2)cc1C |  | inconclusive: -151%
CCN(CC)c1ccc(NC(=O)COc2ccccc2C#N)cc1S(=O)(=O)Nc1ccccc1OC |  | inconclusive: 6.79%
C=CCn1cnnc1SCC(=O)Nc1cccnc1Cl |  | inconclusive
Cc1ccccc1C(=O)NC(C)c1ccc2c(c1)CCCC2 (configuration not stated) |  | inconclusive: -26.7%

(further entries)

| SMILES | Potency | lipid storage change, negative = inhibition |
| --- | --- | --- |
| O=C(CSc1ccccc1C(=O)N1CCN(c2ccccc2)CC1)N1CCCC1 | inconclusive: 25.9 µM [falling, single point] |  |
| O=C1C2CC=CCC2C(=O)N1Cc1nnc(-c2ccccc2Br)o1 (configuration not stated) |  | inconclusive: 5.2% |
| COc1ccc(-c2c(-c3cc(OC)cc(OC)c3)n(C)c3ccc(-c4ccc(N(C)C)nc4)cc23)cc1 |  | inconclusive: 10.2% |
| CCN(CC(=O)Nc1c(F)cccc1F)C(=O)CSCC(=O)Nc1ccc(OC)cc1 | inconclusive: 29.1 µM [falling, single point] |  |
| COc1ccc(-n2nc(C(=O)N(C)C3CCCCC3)c3ccccc3c2=O)c(OC)c1 |  | inconclusive: 19.3% |
| Cn1nnnc1SCC(=O)Nc1ncc(Cl)cc1Cl | inconclusive: 4.11 µM [activator, single point] |  |
| CCCCCN(C(=O)CCC(=O)OC(C)C(=O)Nc1cccc(C#N)c1)c1c(N)n(CCCC)c(=O)[nH]c1=O (configuration not stated) |  | inconclusive |
| COCCN1C(=O)c2[nH]nc(-c3ccccc3O)c2C1c1ccc(OC)cc1 (configuration not stated) | inconclusive: 2.31 µM [activator, full curve] |  |
| CCN(CC)CCN(C(=O)c1cc(Cl)sc1Cl)c1nc2cc3c(cc2s1)OCO3 |  | inconclusive: -0.529% |
| CC(=O)Nc1cccc2ncccc12 | inconclusive: 29.1 µM [activator, single point] |  |
| O=C(COC(=O)COc1ccccc1)NCc1ccccc1 |  | inconclusive: 25.9% |
| CCOC(=O)N1CCC(NC(=O)c2sc(-n3cccc3)nc2C)CC1 |  | inconclusive: -0.455% |
| COc1ccc(CNC(=O)COC(=O)c2n[nH]c3ccccc23)cc1 |  | inconclusive: 65.2% |
| Cc1c(CCOC(=O)C23CC4CC(CC(C)(C4)C2)C3)sc[n+]1CC(=O)c1ccccc1 |  | inconclusive: -20.6% |
| Cc1cc([N+](=O)[O-])ccc1NCc1ccccc1 |  | inconclusive: 24.2% |
| N#Cc1nc(-c2ccc(OCc3ccccc3Cl)cc2)oc1NCCCn1ccnc1 | inconclusive: 1.84 µM [activator, partial curve] |  |
| CCOC(=O)C1CCN(Cc2ccc(OCc3ccccc3)cc2)CC1 |  | inconclusive: -32.5% |
| Cc1ccc(NC(=O)CSc2nnc(Cc3cccn3C)n2-c2ccc(F)cc2)cc1 |  | inconclusive: 8.11% |
| Cc1ccc(S(=O)(=O)N2[C@@H](c3ccccc3)C(C(=O)O)=CC[C@H]2c2ccc3c(c2)OCO3)cc1 |  | inconclusive: -35.2% |
| COc1ccc(Nc2cc(C)nc3ccccc23)cc1 | inconclusive: 6.51 µM [falling, partial curve, poor fit] |  |
| COc1ccc(N2C(=O)C3CCCN3C2c2cc(OC)c(OC)cc2OC)cc1 (configuration not stated) |  | inconclusive: 24.2% |
| CC1CC(C)CN(C(=O)CCNC(=O)Cn2cnc3ccccc3c2=O)C1 (configuration not stated) |  | inconclusive: 57.6% |
| C/C(=N\NC(=O)c1ccn(C)n1)c1ccc(NC(=O)c2cccc(F)c2)cc1 |  | inconclusive: 23.7% |
| Cc1ccc(C(=O)N2CCCCC2C(=O)O)o1 (configuration not stated) | inconclusive: 1.3 µM [falling, full curve] |  |
| COCC(C)NC(=O)c1noc2c1CCc1cc(OC)ccc1-2 (configuration not stated) | inconclusive: 2.31 µM [activator, partial curve, poor fit] |  |
